Data from publication PMC6970532.
No constants are given. Whether binding was seen depends on the method and setting. In cells and extracts the contact can be indirect. Some results given as binding are weak or reduced against the parent protein; the word gives no strength.

Protein sequences, listed by entry. Tags and fused reporters are not part of them.
UniProt Q9GZV5: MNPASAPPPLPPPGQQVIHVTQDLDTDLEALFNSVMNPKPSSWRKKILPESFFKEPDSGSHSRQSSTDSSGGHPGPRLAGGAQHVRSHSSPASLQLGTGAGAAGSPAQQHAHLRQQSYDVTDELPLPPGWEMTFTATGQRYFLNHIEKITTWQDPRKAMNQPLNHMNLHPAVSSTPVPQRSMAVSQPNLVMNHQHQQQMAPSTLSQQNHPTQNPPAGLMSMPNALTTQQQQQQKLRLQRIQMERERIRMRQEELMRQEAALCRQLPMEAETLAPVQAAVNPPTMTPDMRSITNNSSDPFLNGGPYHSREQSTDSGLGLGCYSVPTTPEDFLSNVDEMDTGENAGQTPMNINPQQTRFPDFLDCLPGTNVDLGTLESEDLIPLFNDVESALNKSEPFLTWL
UniProt P46937: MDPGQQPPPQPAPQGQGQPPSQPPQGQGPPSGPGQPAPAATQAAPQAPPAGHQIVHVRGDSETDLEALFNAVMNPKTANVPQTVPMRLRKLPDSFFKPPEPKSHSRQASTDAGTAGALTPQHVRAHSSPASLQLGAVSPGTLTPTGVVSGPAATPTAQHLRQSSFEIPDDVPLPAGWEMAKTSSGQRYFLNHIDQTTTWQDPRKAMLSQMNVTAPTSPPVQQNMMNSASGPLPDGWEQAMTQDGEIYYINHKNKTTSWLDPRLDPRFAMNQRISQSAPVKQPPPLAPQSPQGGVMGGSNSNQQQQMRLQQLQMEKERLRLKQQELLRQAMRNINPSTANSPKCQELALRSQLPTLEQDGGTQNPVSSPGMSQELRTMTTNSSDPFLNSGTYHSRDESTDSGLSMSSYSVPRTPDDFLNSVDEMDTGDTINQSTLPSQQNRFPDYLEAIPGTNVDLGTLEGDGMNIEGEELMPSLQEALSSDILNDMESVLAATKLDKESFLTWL
UniProt Q16665: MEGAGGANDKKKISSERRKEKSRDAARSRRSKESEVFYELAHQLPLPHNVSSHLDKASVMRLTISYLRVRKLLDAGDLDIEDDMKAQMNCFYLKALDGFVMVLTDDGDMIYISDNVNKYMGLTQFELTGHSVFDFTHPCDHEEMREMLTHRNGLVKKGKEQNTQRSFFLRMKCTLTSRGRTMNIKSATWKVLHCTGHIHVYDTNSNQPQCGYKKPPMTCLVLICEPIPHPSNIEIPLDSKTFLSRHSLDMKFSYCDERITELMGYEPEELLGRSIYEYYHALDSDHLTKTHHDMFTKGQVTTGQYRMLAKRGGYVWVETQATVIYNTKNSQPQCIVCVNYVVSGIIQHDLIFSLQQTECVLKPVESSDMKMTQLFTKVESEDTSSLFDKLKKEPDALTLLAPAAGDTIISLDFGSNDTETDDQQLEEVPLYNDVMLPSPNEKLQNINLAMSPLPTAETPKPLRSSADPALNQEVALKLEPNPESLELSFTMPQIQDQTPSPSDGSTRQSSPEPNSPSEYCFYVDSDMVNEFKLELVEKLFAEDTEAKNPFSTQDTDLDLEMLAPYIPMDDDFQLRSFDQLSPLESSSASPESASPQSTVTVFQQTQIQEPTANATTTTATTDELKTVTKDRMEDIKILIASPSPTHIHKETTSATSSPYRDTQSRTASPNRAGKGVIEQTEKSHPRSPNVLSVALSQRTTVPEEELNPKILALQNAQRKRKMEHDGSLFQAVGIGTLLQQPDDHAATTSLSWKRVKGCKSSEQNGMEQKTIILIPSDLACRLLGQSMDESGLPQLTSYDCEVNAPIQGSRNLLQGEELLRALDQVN

Key:
[1] = target: WW domain containing transcription regulator 1 (human (endogenous in HUVEC)) (UniProt Q9GZV5); test: co-IP; immunoprecipitation of Yap1/Taz from HUVEC RIPA lysates (hypoxic conditions), Dynabeads protein-G, 4°C, five washes with lysis buffer without SDS and deoxycholate; immunoblotting of HIF1α and Yap1/Taz; IgG as negative control
[2] = target: Yes-associated protein 1 (human (endogenous in HUVEC)) (UniProt P46937); test: as above

hypoxia-inducible factor 1α (from UniProt Q16665 1-826)
binding [1]: binds | binding [2]: binds
